Data reported in doi:10.1101/2020.05.18.101634.

Legend:
[1] = molecular target: T1, FliM-FLAG (Borrelia burgdorferi) (UniProt Q57511); assay: pull-down
T1 sequence: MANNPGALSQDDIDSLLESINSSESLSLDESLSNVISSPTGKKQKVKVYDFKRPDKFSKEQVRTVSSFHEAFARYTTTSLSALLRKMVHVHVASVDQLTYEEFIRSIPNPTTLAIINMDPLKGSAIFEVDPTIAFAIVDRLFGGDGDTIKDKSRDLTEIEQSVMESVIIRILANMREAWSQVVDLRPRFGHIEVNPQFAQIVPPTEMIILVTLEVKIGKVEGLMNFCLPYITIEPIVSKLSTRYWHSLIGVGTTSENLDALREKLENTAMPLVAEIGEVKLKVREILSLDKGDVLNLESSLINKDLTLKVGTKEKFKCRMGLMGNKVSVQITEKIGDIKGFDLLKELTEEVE

[2] = molecular target: His-CheY3 (without acetyl phosphate) (Borrelia burgdorferi); assay: pull-down

His-CheY3 (without acetyl phosphate) (Borrelia burgdorferi)
binding [1]: binds

B1: FliM-FLAG (protein, UniProt Q57511 1-352)
chain: T1 sequence
binding [2]: binds weakly

No constants are given. Whether binding was seen depends on the method and setting. Binding seen in cells or lysates may run through a third protein. Binding calls can cover weak binding; strength is not graded here. Sequences can lack the tags named with a protein.
